The text below walks through data of doi:10.1101/2024.05.08.593233.

In test [1] the target is T1, 3×FLAG-Rubicon (1–504, 558–972) (human) (UniProt Q92622).
T1 sequence: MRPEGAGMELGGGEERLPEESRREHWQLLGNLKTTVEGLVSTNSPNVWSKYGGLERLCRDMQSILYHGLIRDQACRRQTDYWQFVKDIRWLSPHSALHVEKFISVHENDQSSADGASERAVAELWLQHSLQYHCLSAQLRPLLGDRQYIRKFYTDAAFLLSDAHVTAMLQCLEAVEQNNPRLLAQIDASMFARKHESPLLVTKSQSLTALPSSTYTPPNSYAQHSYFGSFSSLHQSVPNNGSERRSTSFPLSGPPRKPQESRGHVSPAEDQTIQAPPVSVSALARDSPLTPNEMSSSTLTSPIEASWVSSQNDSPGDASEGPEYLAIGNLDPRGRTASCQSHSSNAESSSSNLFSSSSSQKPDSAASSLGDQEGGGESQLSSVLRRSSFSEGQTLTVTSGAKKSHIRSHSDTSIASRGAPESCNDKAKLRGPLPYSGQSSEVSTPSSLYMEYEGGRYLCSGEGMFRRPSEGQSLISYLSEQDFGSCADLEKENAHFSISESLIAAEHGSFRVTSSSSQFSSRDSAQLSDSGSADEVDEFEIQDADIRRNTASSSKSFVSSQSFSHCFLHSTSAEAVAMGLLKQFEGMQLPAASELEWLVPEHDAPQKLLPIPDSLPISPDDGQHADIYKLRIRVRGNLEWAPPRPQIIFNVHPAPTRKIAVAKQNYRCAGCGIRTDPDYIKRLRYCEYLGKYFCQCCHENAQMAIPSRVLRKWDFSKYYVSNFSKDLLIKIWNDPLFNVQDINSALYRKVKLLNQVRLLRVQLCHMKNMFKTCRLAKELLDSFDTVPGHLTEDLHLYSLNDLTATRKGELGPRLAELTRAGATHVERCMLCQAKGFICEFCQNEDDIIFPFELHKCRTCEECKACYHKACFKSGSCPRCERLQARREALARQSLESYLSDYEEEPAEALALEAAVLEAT
Kind of test: co-IP.

Test [2] addresses T2, 3×FLAG-Rubicon (1–508) (human) (UniProt Q92622).
T2 sequence: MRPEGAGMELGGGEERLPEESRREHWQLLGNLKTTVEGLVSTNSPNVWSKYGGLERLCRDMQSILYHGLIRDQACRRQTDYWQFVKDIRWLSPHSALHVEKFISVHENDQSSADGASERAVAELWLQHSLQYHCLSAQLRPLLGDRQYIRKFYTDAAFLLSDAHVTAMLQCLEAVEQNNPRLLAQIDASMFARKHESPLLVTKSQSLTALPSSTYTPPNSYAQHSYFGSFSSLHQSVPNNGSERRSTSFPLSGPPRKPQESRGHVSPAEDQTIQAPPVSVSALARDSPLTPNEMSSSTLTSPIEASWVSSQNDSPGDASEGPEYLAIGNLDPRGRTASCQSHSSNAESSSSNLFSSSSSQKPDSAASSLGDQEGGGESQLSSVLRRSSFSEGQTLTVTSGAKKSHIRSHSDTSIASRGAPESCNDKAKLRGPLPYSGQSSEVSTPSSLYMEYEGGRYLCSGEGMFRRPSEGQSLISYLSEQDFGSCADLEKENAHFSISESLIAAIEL
The experiment in a line: co-IP.

No constants are given. Whether binding was seen depends on the method and setting. Binding seen in cells or lysates may run through a third protein. Some binding calls cover weakened binding; strength is not graded here. Where a sequence is shown, tags or fusion partners need not be part of it.

B1: HA-WIPI2d (protein, UniProt Q9Y4P8-2 1-425)
chain: MNLASQSGEAGAGQLLFANFNQDNTSLAVGSKSGYKFFSLSSVDKLEQIYECTDTEDVCIVERLFSSSLVAIVSLKAPRKLKVCHFKKGTEICNYSYSNTILAVKLNRQRLIVCLEESLYIHNIRDMKVLHTIRETPPNPAGLCALSINNDNCYLAYPGSATIGEVQVFDTINLRAANMIPAHDSPLAALAFDASGTKLATASEKGTVIRVFSIPEGQKLFEFRRGVKRCVSICSLAFSMDGMFLSASSNTETVHIFKLETVKEKPPEEPTTWTGYFGKVLMASTSYLPSQVTEMFNQGRAFATVRLPFCGHKNICSLATIQKIPRLLVGAADGYLYMYNLDPQEGGECALMKQHRLDGSLETTNEILDSASHDCPLVTQTYGAAAGKAYTDDLGAVGGACLEDEASALRLDEDSEHPPMILRTD
B1: the binding entry in test [1] was “binds”; in test [2], “no binding”.

B2: endogenous WIPI2 (HEK293T) (protein, UniProt Q9Y4P8 1-454)
chain: MNLASQSGEAGAGQLLFANFNQDNTEVKGASRAAGLGRRAVVWSLAVGSKSGYKFFSLSSVDKLEQIYECTDTEDVCIVERLFSSSLVAIVSLKAPRKLKVCHFKKGTEICNYSYSNTILAVKLNRQRLIVCLEESLYIHNIRDMKVLHTIRETPPNPAGLCALSINNDNCYLAYPGSATIGEVQVFDTINLRAANMIPAHDSPLAALAFDASGTKLATASEKGTVIRVFSIPEGQKLFEFRRGVKRCVSICSLAFSMDGMFLSASSNTETVHIFKLETVKEKPPEEPTTWTGYFGKVLMASTSYLPSQVTEMFNQGRAFATVRLPFCGHKNICSLATIQKIPRLLVGAADGYLYMYNLDPQEGGECALMKQHRLDGSLETTNEILDSASHDCPLVTQTYGAAAGKGTYVPSSPTRLAYTDDLGAVGGACLEDEASALRLDEDSEHPPMILRTD
On to B2, for which the binding entry in test [1] is “binds”; in test [2] it was “no binding”.
